These results are taken from publication doi:10.1101/671024.

Positions count from the first letter of the chain named. Numbers in names are those of the source. These are yes or no findings as the source states them, for the method shown. In cells and extracts the contact can be indirect. Some entries that bind do so weakly or less than the wild type. Sequences can lack the tags named with a protein.

Holding throughout (test): co-IP
For assay [1], the target named is T1, LIN-52::GFP::3xFLAG (lin-52(WT)) (C. elegans) (UniProt Q10120).
T1 sequence: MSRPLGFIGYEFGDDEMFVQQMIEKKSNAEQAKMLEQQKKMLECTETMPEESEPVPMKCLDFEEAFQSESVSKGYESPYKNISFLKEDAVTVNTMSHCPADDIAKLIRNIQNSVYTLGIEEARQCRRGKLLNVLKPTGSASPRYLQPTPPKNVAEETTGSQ

Assay [2] deals with T2, LIN-52[L42A,C44A,E46A]::GFP::3xFLAG (lin-52(3A)) (C. elegans) (UniProt Q10120).
T2 sequence: T1 sequence with L42A, C44A, E46A

Assay [3] concerns the target T3, LIN-52[C44A]::GFP::3xFLAG (lin-52(1A)) (C. elegans) (UniProt Q10120).
T3 sequence: T1 sequence with C44A

The target of assay [4] is T4, LIN-35 (C. elegans (endogenous in late embryos)) (UniProt G5EDT1).
T4 sequence: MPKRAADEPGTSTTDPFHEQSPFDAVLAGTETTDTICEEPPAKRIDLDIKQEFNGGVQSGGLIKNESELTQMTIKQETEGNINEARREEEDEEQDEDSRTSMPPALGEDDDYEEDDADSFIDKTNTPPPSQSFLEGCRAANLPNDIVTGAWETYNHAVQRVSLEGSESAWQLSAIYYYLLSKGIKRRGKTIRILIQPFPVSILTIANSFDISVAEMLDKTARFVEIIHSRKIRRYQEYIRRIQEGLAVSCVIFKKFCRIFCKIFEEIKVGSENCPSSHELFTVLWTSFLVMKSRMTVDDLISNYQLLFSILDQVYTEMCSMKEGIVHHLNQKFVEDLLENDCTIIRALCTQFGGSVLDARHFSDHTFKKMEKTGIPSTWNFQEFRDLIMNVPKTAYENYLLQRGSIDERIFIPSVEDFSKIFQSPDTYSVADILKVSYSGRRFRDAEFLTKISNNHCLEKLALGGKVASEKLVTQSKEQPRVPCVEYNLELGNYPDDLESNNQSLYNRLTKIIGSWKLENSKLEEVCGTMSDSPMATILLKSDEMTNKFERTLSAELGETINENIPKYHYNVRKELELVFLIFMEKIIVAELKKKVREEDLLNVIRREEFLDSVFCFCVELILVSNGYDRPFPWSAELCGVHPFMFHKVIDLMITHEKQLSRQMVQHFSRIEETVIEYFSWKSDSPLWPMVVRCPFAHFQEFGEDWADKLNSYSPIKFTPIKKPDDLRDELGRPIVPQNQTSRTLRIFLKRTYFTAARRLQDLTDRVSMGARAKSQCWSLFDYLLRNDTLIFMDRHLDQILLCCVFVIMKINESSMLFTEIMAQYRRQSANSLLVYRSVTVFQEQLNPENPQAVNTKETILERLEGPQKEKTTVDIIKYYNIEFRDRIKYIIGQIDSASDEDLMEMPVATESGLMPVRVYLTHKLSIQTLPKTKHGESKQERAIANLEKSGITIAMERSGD

B1: LIN-35 (protein, UniProt G5EDT1 1-961)
chain: T4 sequence
On to B1, for which the binding result in assay [1] was “binds”; in assay [2] it was “no binding”; in assay [3], “binds”.

B2: LIN-52::GFP::3xFLAG (lin-52(WT)) (protein, UniProt Q10120 1-161)
chain: T1 sequence
With B2, in assay [4], the binding result was “binds”.

B3: LIN-52[L42A,C44A,E46A]::GFP::3xFLAG (lin-52(3A)) (protein, UniProt Q10120 1-161)
chain: T1 sequence with L42A, C44A, E46A
With B3, the binding entry in assay [4] is recorded as “no binding”.

B4: LIN-52[C44A]::GFP::3xFLAG (lin-52(1A)) (protein, UniProt Q10120 1-161)
chain: T1 sequence with C44A
Turning to B4, in assay [4], the binding entry is “binds”.
